The other results are listed elsewhere or left out.
Key:
Assay in all cases: log2 fold change, soluble protein after heating vs DMSO (PISA); higher = thermal stabilisation; K562 lysate, 10 uM; active = over 0.2 and 3.5 SD of the protein, either way, in both replicates (recomputed)
[1] = compound: C1=CC=C(C=C1)[C@H](COC2=CC3=C(C=C2)NC(=O)N3)NC(=O)C4=CC=CN(C4=O)CC5=CC(=C(C=C5)F)F
Method in brief: (§1)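 K562 pellets were dounce-homogenised in PBS pH 7.4 containing 1 mM MgCl2, and the crude extract, at 1 mg/mL protein, was exposed to 10 μM compound for 30 min. Aliquots were heated for 3 min across 48°C-58°C, pooled, brought to 0.5% NP-40 at 4°C and spun at 21,000xg for 90 min, with the supernatant taken as soluble protein. TMTpro 16plex LC-MS/MS with equalised channel sums quantified that protein. Values are log-two fold changes in thermal stability relative to solvent controls, taken from duplicates.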

The chains behind the UniProt entries cited, without tags or fusion partners. Where a name states a change or a piece, a line headed by the entry shows the natural chain unless it says otherwise.
UniProt Q06210: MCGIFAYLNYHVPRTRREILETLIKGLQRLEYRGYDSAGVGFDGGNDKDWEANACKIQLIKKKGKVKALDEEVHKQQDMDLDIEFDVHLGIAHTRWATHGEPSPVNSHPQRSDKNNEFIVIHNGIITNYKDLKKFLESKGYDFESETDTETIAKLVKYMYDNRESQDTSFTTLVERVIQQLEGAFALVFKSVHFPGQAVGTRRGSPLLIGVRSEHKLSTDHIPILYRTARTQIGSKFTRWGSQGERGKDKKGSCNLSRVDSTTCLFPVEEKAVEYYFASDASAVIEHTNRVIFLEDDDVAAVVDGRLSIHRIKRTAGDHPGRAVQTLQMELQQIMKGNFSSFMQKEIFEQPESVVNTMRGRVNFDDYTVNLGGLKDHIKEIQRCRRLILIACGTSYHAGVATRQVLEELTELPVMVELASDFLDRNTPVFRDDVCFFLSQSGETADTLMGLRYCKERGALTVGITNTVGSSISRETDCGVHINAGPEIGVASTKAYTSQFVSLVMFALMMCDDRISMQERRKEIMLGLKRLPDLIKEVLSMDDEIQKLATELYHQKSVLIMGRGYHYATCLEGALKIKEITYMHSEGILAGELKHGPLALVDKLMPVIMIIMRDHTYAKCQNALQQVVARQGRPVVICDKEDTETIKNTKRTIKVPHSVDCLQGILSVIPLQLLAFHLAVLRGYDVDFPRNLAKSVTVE
UniProt Q14376: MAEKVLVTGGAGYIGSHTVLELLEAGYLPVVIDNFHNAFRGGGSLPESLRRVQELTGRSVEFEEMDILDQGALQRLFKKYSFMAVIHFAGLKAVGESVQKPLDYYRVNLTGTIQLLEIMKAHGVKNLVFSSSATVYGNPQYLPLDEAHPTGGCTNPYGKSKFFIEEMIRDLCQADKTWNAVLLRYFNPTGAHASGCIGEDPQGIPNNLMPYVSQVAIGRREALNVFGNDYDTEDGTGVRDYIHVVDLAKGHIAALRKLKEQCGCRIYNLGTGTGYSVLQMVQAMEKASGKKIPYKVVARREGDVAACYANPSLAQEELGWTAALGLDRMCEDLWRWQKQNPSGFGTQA
UniProt Q9UN86: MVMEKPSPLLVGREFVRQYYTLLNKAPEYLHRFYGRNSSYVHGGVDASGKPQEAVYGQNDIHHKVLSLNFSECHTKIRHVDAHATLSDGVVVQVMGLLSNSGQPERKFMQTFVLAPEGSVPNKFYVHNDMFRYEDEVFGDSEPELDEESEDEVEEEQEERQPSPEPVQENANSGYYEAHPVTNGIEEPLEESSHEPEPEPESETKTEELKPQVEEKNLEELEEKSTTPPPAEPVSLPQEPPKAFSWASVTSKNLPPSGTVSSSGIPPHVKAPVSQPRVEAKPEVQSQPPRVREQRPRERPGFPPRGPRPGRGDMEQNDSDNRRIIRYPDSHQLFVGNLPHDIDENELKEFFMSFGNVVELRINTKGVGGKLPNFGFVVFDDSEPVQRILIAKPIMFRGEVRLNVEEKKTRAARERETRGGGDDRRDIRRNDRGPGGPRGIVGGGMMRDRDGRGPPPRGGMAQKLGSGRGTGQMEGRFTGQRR
UniProt Q7Z7M9: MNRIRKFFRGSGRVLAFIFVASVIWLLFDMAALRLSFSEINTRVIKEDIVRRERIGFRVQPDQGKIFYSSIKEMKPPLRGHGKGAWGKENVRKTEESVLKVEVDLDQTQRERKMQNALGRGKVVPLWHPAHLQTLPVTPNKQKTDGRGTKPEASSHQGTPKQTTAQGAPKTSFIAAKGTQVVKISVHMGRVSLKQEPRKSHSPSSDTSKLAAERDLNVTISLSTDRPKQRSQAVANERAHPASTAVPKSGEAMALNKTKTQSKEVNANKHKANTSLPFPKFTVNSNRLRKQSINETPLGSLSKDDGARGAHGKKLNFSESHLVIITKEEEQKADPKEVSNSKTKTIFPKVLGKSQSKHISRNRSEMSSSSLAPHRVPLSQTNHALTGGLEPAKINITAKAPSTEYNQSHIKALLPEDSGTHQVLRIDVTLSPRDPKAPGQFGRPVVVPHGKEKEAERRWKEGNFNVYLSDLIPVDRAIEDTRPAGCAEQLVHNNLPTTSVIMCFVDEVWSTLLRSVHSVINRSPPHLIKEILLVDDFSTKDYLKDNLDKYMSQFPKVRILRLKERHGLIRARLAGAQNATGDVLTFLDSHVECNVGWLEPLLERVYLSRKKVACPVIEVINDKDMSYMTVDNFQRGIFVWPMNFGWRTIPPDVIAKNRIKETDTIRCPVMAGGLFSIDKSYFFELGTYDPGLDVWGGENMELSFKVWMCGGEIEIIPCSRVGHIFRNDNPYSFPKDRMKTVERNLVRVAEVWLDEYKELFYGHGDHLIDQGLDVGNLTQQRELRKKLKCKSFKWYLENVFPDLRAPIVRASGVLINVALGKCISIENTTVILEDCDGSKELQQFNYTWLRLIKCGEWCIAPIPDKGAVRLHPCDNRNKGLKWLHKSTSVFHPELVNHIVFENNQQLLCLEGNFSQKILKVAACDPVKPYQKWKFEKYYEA
UniProt Q10472: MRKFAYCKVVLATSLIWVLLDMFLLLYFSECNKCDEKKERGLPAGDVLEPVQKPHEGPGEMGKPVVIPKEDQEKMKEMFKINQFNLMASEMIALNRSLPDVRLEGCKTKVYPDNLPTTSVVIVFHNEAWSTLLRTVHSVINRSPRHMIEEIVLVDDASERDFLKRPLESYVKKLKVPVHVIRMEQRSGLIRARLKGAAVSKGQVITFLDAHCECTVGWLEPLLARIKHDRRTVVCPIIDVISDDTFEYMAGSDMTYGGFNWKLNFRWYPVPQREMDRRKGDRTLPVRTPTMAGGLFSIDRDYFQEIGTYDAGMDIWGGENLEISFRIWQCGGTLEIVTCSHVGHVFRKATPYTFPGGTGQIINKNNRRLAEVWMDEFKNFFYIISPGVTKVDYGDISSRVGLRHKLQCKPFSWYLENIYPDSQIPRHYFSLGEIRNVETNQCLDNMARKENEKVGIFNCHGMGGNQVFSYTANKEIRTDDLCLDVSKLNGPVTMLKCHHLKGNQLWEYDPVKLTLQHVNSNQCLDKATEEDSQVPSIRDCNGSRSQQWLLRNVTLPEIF
UniProt O95166, whole entry, looked up: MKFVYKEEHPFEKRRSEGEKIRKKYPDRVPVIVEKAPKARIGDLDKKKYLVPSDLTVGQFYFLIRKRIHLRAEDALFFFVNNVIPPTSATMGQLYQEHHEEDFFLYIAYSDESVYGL
UniProt Q14C86: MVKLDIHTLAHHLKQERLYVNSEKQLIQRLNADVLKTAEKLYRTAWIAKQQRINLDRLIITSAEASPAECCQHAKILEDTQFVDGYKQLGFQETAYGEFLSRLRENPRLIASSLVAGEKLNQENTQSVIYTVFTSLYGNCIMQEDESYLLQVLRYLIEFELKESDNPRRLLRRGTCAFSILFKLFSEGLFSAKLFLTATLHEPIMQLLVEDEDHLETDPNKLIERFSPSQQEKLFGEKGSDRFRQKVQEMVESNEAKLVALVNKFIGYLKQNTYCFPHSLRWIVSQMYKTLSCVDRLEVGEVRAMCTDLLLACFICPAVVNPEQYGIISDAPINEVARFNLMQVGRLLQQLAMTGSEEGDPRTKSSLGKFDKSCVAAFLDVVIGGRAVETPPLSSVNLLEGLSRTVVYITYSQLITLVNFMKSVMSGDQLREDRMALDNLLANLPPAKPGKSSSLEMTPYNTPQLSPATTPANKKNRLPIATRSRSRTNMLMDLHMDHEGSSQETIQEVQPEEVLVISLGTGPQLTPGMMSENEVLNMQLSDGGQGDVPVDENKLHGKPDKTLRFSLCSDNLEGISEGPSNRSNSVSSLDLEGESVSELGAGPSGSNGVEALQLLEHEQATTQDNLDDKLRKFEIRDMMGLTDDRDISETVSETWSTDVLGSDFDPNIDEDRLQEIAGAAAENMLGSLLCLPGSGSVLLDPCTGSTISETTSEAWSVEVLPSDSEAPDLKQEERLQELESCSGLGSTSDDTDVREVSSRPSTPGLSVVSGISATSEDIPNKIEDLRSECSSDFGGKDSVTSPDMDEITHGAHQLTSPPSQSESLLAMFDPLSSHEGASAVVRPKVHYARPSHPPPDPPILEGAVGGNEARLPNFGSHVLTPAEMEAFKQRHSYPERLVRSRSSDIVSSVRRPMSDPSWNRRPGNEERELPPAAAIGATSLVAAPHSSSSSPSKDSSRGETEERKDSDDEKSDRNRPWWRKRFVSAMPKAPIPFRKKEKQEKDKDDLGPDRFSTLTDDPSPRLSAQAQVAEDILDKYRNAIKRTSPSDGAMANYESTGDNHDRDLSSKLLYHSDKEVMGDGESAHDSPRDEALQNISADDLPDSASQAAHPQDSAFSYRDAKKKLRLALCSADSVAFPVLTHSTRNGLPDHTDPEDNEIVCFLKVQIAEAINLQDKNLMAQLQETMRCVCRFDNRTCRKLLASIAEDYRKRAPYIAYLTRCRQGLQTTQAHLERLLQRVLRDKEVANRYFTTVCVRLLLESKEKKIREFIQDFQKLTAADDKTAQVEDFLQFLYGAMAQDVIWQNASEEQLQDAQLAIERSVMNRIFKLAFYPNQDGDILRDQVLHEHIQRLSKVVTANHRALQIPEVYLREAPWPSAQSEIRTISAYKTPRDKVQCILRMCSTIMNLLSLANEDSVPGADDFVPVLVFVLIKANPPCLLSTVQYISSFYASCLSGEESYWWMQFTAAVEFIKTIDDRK
UniProt O14893: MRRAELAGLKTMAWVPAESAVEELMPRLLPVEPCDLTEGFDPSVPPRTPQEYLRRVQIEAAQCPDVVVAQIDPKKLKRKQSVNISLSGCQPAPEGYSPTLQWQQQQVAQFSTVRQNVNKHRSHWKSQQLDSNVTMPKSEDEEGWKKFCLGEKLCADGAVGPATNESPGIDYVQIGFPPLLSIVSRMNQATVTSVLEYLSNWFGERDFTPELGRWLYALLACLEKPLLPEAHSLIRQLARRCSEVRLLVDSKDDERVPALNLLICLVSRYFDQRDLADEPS
UniProt Q01167: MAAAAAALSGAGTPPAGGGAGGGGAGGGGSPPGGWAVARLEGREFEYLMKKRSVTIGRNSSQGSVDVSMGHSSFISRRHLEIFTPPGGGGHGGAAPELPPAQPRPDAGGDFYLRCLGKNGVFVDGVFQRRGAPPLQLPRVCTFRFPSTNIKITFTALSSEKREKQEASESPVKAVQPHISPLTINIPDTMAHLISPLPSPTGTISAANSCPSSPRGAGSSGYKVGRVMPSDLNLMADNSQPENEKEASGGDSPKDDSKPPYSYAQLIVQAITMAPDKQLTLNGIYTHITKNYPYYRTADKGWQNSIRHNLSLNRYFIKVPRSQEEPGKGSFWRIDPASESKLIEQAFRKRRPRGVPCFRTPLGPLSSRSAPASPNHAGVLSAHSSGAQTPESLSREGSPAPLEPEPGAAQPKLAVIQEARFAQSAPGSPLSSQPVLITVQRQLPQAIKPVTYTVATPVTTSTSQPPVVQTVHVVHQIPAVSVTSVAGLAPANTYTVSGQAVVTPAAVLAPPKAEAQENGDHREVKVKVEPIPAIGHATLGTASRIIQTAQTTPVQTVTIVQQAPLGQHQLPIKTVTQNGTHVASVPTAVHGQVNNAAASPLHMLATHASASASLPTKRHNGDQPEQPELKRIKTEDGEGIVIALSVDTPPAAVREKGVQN
UniProt Q9H2C0: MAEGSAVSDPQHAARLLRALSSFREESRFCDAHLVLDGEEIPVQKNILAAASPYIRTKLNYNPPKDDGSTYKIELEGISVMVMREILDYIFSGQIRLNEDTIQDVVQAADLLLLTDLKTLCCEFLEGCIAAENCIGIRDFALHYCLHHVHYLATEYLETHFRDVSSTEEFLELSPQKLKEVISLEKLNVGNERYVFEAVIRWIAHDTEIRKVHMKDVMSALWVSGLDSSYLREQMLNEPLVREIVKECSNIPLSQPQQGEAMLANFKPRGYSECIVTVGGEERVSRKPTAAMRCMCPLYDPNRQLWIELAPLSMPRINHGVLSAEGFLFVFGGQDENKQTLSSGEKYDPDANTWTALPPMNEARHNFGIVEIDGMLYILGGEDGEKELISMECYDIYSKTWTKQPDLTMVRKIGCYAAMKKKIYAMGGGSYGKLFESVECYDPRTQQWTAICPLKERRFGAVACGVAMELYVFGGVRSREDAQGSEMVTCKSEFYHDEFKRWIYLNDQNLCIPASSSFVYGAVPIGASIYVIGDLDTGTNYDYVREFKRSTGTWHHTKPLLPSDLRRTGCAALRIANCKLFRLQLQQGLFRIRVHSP
UniProt Q06547, whole entry, looked up: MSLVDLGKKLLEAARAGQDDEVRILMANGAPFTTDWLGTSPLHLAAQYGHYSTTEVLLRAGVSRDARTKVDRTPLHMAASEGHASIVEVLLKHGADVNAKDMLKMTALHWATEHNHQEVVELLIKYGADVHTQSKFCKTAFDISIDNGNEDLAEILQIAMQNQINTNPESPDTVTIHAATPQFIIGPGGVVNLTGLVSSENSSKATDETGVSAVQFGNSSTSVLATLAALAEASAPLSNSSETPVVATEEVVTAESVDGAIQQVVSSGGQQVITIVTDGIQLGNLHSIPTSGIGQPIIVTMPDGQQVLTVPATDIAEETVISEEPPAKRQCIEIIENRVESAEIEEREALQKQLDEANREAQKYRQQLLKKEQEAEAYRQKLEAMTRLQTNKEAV

[2] = compound: CC1=C(SC2=C1C(=N[C@H](C3=NN=C(N32)C)CC(=O)N)C4=CC=C(C=C4)Cl)C
Method in brief: as §1

[3] = compound: CC1=C2C(=CC=C1)N=C(N(C2=O)C3=CC=CC=C3C)CN4C=NC5=C(N=CN=C54)N
Method in brief: as §1

[4] = compound: Cc1sc2c(c1C)C(c1ccc(Cl)cc1)=N[C@@H](CC(=O)OC(C)(C)C)c1nnc(C)n1-2
Method in brief: as §1

[5] = compound: c1ccc([C@@H]2C[C@H]2NC2CCNCC2)cc1
Method in brief: as §1

Measured: log2 fold change

GFM2 (UniProt Q969S9)
inactive: [1] 0.136 | [2] -0.038 | [3] 0.016 | [4] -0.013 | [5] 0.067

GFPT1 (UniProt Q06210)
inactive: [1] -0.021 | [2] -0.001 | [3] 0.021 | [4] 0.019 | [5] 0.058

FTH1 (UniProt P02794)
inactive: [1] -0.034 | [2] 0.02 | [3] -0.001 | [4] -0.013 | [5] 0.009

GALE (UniProt Q14376)
inactive: [1] -0.004 | [2] -0.043 | [3] 0.001 | [4] 0.014 | [5] 0.023

G3BP2 (UniProt Q9UN86)
inactive: [1] 0.002 | [2] 0.02 | [3] -0.016 | [4] -0.021 | [5] 0.003

FYCO1 isoform 4 (UniProt Q9BQS8)
inactive: [1] 0.01 | [2] 0.037 | [3] 0.03 | [4] 0.023 | [5] -0.1

FREM2 (UniProt Q5SZK8)
inactive: [1] 0 | [2] 0.074 | [3] 0.003 | [4] -0.133 | [5] -0.212

GALNT5 (UniProt Q7Z7M9)
inactive: [1] 0.025 | [2] -0.007 | [3] 0.032 | [4] 0.026 | [5] -0.008

GALNT1 (UniProt Q10472)
inactive: [1] -0.032 | [2] -0.003 | [3] 0.007 | [4] -0.05 | [5] -0.036

FRG1 (UniProt Q14331)
inactive: [1] 0.028 | [2] 0.016 | [3] -0.022 | [4] 0.101 | [5] 0.042

FXR1 (UniProt P51114)
inactive: [1] -0.028 | [2] -0.016 | [3] -0.009 | [4] 0.04 | [5] 0.027

GABARAP (UniProt O95166)
inactive: [1] -0.043 | [2] 0.056 | [3] 0.2 | [4] 0.001 | [5] -0.03

FOXRED1 (UniProt Q96CU9)
inactive: [1] 0.009 | [2] 0.008 | [3] -0.005 | [4] 0.017 | [5] -0.014

GCLM (UniProt P48507)
inactive: [1] 0.01 | [2] -0.041 | [3] 0.02 | [4] 0.008 | [5] 0.006

GAPVD1 isoform 6 (UniProt Q14C86)
inactive: [1] -0.013 | [2] 0.002 | [3] 0.002 | [4] -0.011 | [5] 0.063

GEMIN2 (UniProt O14893)
inactive: [1] -0.009 | [2] 0.01 | [3] -0.023 | [4] 0.015 | [5] -0.043

GALNT7 (UniProt Q86SF2)
inactive: [1] 0.035 | [2] -0.013 | [3] 0.039 | [4] 0.01 | [5] 0.066

FOXK2 (UniProt Q01167)
inactive: [1] 0.017 | [2] -0.019 | [3] -0.015 | [4] -0.06 | [5] 0.005

Reprinted from the listing (six entries):
G3BP2 (UniProt Q9UN86)
inactive: [1] 0.002 | [2] 0.02 | [3] -0.016 | [4] -0.021 | [5] 0.003

FYCO1 isoform 4 (UniProt Q9BQS8)
inactive: [1] 0.01 | [2] 0.037 | [3] 0.03 | [4] 0.023 | [5] -0.1

FREM2 (UniProt Q5SZK8)
inactive: [1] 0 | [2] 0.074 | [3] 0.003 | [4] -0.133 | [5] -0.212

GALNT5 (UniProt Q7Z7M9)
inactive: [1] 0.025 | [2] -0.007 | [3] 0.032 | [4] 0.026 | [5] -0.008

GALNT1 (UniProt Q10472)
inactive: [1] -0.032 | [2] -0.003 | [3] 0.007 | [4] -0.05 | [5] -0.036

FRG1 (UniProt Q14331)
inactive: [1] 0.028 | [2] 0.016 | [3] -0.022 | [4] 0.101 | [5] 0.042

(cont.)

GAB1 isoform 2 (UniProt Q13480)
inactive: [1] 0.028 | [2] 0.018 | [3] -0.041 | [4] -0.124 | [5] -0.099

GDI2 (UniProt P50395)
inactive: [1] 0.011 | [2] -0.002 | [3] 0.008 | [4] 0.011 | [5] 0.083

FUCA2 (UniProt Q9BTY2)
inactive: [1] 0.037 | [2] -0.019 | [3] -0.005 | [4] -0.047 | [5] -0.117

GAN (UniProt Q9H2C0)
inactive: [1] 0.045 | [2] 0.012 | [3] 0.036 | [4] -0.025 | [5] -0.083

GCHFR (UniProt P30047)
inactive: [1] 0.122 | [2] -0.016 | [3] -0.045 | [4] -0.062 | [5] 0.004

GABPB1 isoform 3 (UniProt Q06547)
inactive: [1] 0.039 | [2] 0.052 | [3] -0.017 | [4] -0.024 | [5] -0.025

— the supplement of paper PMC10849652
